Experimental data reported in PMC6763460.
These are yes or no findings as the source states them, for the method shown. Binding seen in cells or lysates may run through a third protein. Some results given as binding are weak or reduced against the parent protein; the word gives no strength.

Chains of the proteins cited; added tags and fusions are not shown.
UniProt P46937: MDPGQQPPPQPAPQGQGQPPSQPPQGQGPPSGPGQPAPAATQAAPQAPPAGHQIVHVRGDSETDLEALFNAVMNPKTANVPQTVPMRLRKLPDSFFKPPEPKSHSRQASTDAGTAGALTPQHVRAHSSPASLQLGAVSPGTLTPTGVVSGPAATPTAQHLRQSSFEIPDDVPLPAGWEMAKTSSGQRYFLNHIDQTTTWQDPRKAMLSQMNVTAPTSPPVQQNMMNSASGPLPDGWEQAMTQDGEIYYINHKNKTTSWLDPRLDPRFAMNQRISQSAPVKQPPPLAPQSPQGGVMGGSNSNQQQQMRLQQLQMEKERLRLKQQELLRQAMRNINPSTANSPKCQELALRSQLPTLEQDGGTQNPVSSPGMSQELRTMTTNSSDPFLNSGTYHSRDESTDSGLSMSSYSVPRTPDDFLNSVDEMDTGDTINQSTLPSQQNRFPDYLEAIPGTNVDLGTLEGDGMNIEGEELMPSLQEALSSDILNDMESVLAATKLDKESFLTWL
UniProt O60603: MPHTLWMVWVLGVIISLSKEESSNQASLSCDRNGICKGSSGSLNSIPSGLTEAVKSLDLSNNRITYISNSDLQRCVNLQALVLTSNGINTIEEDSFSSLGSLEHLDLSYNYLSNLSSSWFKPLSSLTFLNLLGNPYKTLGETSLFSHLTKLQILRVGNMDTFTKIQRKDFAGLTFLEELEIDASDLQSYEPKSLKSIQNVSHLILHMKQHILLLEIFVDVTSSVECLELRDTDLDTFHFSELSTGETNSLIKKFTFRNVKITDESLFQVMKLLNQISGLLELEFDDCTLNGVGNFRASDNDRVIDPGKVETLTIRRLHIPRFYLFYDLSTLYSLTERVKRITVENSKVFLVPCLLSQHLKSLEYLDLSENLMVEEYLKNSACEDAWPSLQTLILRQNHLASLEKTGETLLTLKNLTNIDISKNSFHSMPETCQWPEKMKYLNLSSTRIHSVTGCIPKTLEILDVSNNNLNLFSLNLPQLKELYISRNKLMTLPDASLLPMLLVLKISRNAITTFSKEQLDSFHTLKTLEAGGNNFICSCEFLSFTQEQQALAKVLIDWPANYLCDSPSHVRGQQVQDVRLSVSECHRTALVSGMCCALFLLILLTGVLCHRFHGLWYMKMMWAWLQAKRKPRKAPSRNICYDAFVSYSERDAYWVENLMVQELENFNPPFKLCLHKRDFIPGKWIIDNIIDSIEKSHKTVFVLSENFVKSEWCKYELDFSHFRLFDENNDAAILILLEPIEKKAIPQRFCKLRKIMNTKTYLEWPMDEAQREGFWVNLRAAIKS
UniProt Q16665: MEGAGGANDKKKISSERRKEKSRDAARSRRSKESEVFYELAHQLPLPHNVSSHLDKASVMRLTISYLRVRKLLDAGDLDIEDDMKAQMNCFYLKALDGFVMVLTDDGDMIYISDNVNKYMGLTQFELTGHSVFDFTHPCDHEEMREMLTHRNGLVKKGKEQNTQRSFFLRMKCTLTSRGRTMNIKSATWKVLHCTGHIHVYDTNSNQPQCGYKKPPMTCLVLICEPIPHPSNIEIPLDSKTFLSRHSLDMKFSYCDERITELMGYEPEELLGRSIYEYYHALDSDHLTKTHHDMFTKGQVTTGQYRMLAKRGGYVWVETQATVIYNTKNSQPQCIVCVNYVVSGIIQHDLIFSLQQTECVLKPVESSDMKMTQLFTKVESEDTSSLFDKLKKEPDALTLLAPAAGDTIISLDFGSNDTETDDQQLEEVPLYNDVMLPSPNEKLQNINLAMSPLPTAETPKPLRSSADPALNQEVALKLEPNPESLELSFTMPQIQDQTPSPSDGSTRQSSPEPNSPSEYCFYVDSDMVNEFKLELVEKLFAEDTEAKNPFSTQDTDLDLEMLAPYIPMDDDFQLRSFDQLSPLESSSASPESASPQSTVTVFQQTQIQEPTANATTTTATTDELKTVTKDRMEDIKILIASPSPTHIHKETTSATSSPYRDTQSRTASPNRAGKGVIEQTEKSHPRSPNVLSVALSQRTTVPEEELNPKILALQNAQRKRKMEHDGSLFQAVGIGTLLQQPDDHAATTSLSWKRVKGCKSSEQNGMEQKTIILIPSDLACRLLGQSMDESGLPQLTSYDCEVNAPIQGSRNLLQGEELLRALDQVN
UniProt P09429: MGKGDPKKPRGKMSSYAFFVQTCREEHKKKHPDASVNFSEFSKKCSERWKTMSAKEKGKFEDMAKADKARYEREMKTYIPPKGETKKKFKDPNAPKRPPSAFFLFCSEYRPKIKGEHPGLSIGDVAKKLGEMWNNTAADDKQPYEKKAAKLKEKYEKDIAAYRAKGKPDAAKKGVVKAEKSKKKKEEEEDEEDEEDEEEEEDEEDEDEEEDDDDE

What was measured:
[1] = biological target: YAP (human (endogenous in CD133- pancreatic cancer cells)) (UniProt P46937); assay: co-IP; lysates of CD133- cancer cells treated with or without rhHMGB1, under normoxia or hypoxia; immunoprecipitated with 2 ug anti-YAP overnight at 4 °C, protein A/G agarose beads, washed three times with lysis buffer
[2] = biological target: TLR2 receptor (human (endogenous in CD133- pancreatic cancer cells)) (UniProt O60603); assay: co-IP; CD133- cancer cells cultured with 250 ng/ml rhHMGB1, then lysed; lysates immunoprecipitated with 2 ug anti-TLR2 overnight at 4 °C, protein A/G agarose beads, washed three times with lysis buffer; only the binder purified

binding [1] | binding [2] | Substance
binds |  | hypoxia-inducible factor 1α (from UniProt Q16665 1-826)
 | binds | recombinant human HMGB1 (from UniProt P09429 1-215) (ligand)
